This note sets out measurements from paper PMC9769551.

Protein sequences, listed by entry. Tags and fused reporters are not part of them. Lines headed by an entry give the natural chain unless they say otherwise; changes in a name come on top.
UniProt P0ACS9: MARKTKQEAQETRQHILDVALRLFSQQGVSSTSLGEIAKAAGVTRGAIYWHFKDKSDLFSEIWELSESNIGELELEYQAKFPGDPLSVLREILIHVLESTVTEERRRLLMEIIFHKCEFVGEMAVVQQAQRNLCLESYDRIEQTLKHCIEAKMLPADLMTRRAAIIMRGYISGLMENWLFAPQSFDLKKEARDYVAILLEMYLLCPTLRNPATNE

The exact form of at least one protein or probe is not confirmed. The comparison behind a weaker result is the experiment's own reference, which may not be listed here.

The series concerns the target AcrR (Escherichia coli BW25113) (UniProt P0ACS9). Description: EMSA. As to conditions: 0.4 uM AcrR, 10 mM putrescine (partial disruption); 10 mM Tris-HCl pH 7.5, 50 mM KCl, 1 mM DTT, 5 mM MgCl2, 1 ug poly(dI-dC), 0.05% NP-40, 5% glycerol, 20 uL with 25 fmol DNA; recombinant protein; residues 1-215; protein details: C-terminal 6xHis; label: 3'-biotin; probe letters rebuilt from the primers and the genome.

In the case of “TGTTCATATGTAAACCTCGAGTGTCCGATTTCAAATTGGTCAATGGTCAAAAGTTAATAAACCCATTGCTGCGTTTATATTATCGTCGTGCTATGGTACATACATTCACAAATGTATGTAAATCTAACGCCTGTAAATTCACGAACATATGGCACGAAAAACCAAACAAGAAGCGCAAG (double strand) [acrABp 179 bp]”, the binding result was “binds more weakly”.
